In general, AC50 refers to the concentration giving half of the maximal activity seen. Read a low AC50 as greater potency.

Where “and” joins values, the source holds several entries; their conditions need not be identical. Identical values can stand only once. Some of the results follow. These are further read-outs of the screen, such as a control signal, another cell line or another target. No call is given for them. Compounds called inactive in the main read-out are mostly missing here. The note in brackets gives the kind of curve behind each potency; many fits are weak.

Results on 65 compounds are retold here after PubChem BioAssay AID2685 (National Center for Advancing Translational Sciences (NCATS), 2010).

This test in a line: qHTS Assay for Lipid Storage Modulators in Drosophila S3 Cells.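 As to cell number change: cells counted by Cell Tracker Red CMTPX staining in the red channel.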 The note with it: BODIPY lipid droplet fluorescence, 18-24 h; for cell number change: measured here: cell count max response, cells fed with added oleic acid. The method in brief:
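Drosophila S3 cells loaded with oleic acid (400 uM, as added) and compounds at several concentrations; lipid droplets imaged by 488-nm laser-scanning cytometry, 500–530 nm intensity and object ratio to cell channel. Percent activity normalized to 20 uM Triacsin C.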

Setting [1] is: measured here: lipid fluorescence (Fed channel) AC50, cells fed with added oleic acid.
Where [2] appears, read: measured here: cell number channel AC50, cells fed with added oleic acid.

Regarding `COc1cc(C(CCN2CCN(c3ccccc3)CC2)c2c(OC)cc(OC)c3c(C)cc(=O)oc23)cc(OC)c1OC` (stereo not given), the cell number change was -26.4%. The AC50 under setting [1] was 29.1 µM [falling, single point].

Consider `COc1cc(OC)cc(-c2c(C#Cc3ccsc3)c3cc(-c4ccc5[nH]ccc5c4)ccc3n2C)c1`, for which the cell number change was -21.1%. Besides, the concentration at half-maximal activity (AC50) under setting [1] was 0.116 µM [rising, full curve].

Regarding `O=C(Nc1ccc(NC(=O)c2ccc([N+](=O)[O-])o2)cc1Cl)c1ccco1`, the cell number change turned out to be 4.7%. In addition, under setting [1], the AC50 was 3.26 µM [falling, full curve].

For the compound `CN(C)S(=O)(=O)c1ccc(C(=O)NCc2nc3ccccc3s2)cc1`, the cell number change is 3.85%.

On to `CC(=O)c1ccc(-n2nncc2C)cc1`, for which the cell number change is -1.68%.

Turning to `O=S(=O)(c1ccc(Cl)s1)N1CCN(Cc2ccccc2)CC1`, the cell number change was 132%. In addition, the concentration at half-maximal activity (AC50) under setting [2] is 18.4 µM [rising, single point]. In addition, the half-maximal activity concentration (AC50) under setting [1] is 18.4 µM [rising, partial curve].

Take `CC(C)COc1ccc(C(=O)OC2CC(C)(C)OCC2CN(C)C)cc1` (stereo not given): the cell number change is -6.44%.

`CCc1ccccc1OCC(=O)OCC(=O)N1CC(=O)Nc2ccccc21`: the cell number change was determined as 57.1%. For the same compound, under setting [2], the AC50 is 16.4 µM [rising, single point].

With `COc1ccc(S(=O)(=O)Nc2ccc(-n3cccc3)cc2)cc1`, the cell number change is -62.4%. Also, the AC50 under setting [2] is 29.1 µM [falling, single point]. Further, the AC50 under setting [1] is 29.1 µM [falling, single point].

For the compound `Cc1cccc(OCCCC(=O)Nc2ccccc2C(F)(F)F)c1`, the cell number change was -2.79%.

`O=C(O)CCCCC1SCC2NC(=O)NC21` (stereo not given): the cell number change was -23.9% and -58.3%. Moreover, under setting [2], the concentration at half-maximal activity (AC50) was 2.91 µM [falling, partial curve, poor fit]. Further, under setting [1], the half-maximal activity concentration (AC50) was 14.6 µM [falling, partial curve] and 3.66 µM [falling, single point].

As to `CCN1CCc2nc(NC(=O)C(c3ccccc3)c3ccccc3)sc2C1`, the half-maximal activity concentration (AC50) under setting [1] was 0.00461 µM [falling, full curve, poor fit].

With `CC(=O)Nc1ccc(S(=O)(=O)NCCC(=O)OCc2csc(CC(=O)Nc3ccccc3C)n2)cc1`, the cell number change was found to be 12.5%. Further, the AC50 under setting [2] is 0.116 µM [falling, full curve].

Take `Cc1ccc(S(=O)(=O)N(C)C)cc1NC(=O)COC(=O)CCC1CCCCC1`: the cell number change is -3.21%.

On to `CCn1cc(CNC(=O)C2C3CCC(C3)C2C(=O)O)cn1` (stereo not given), for which the cell number change was -15.8%.

Consider `Cc1cc(NC(=O)C(C)SCC(=O)N(C)CC(=O)Nc2ccc(Br)cc2C)no1` (stereo not given), for which the cell number change came out at 9.19%. Also, the AC50 under setting [1] is 29.1 µM [falling, single point].

For `O=C(CCCCC(=O)Nc1ccc(F)cc1)Nc1ccc(F)cc1`, the AC50 under setting [1] was 1.46 µM [rising, partial curve].

As to `CCOC(=O)C1C(c2cc(OC)c(OC)c(OC)c2)NC(=S)NC1(O)C(F)(F)F` (stereo not given), the cell number change is 12.9%. For the same compound, under setting [1], the half-maximal activity concentration (AC50) was 1.03 µM [rising, partial curve].

Regarding `COc1ccc(OC)c(NC(=O)CSc2ccc3nnc(-c4ccccn4)n3n2)c1`, the cell number change worked out at 24.1%. Moreover, the AC50 under setting [1] was 0.00517 µM [rising, full curve, poor fit].

For the compound `COc1cc(/C(C)=N\NC(N)=S)cc(OC)c1OC`, the cell number change was 3.28%. For the same compound, the AC50 under setting [1] is 16.4 µM [falling, partial curve].

Take `O=C(CCNS(=O)(=O)c1ccccc1)N1CCOCC1`: the cell number change was 20.5%. For the same compound, under setting [1], the AC50 is 29.1 µM [rising, single point].

Take `COc1ccc(NC(=O)c2ccc(NC(=O)CN(C)CC(=O)Nc3c(C)cccc3C)cc2)cc1`: the cell number change was -20.5%. Under setting [1], the AC50 is 29.1 µM [falling, single point].

As to `O=C(NCCNC(=O)c1ccccc1)c1ccccc1`, the cell number change is -18.5%. Under setting [1], the concentration at half-maximal activity (AC50) is 0.731 µM [falling, full curve, poor fit].

Consider `O=C(CN1C(=O)NC(c2ccccc2)(c2ccccc2)C1=O)NCc1cccs1`, for which the cell number change amounted to 13.8%. Moreover, the half-maximal activity concentration (AC50) under setting [2] is 6.51 µM [rising, single point].

With `CC(=O)NNC(=O)c1sc(=S)n2c1[nH]c(=O)c1sccc12`, the cell number change was -20.6%. Also, the AC50 under setting [2] was 0.00461 µM [falling, full curve, poor fit].

As for `COc1ccc(S(=O)(=O)N2CCN(C(=O)N(C)C)C2C)cc1` (stereo not given), the cell number change amounted to 16.4%.

On to `Nc1ccn(-c2ccc(Cl)cc2)c(=O)c1`, for which the cell number change is -23.7%. Under setting [1], the half-maximal activity concentration (AC50) is 0.00517 µM [rising, full curve, poor fit].

Take `O=S(=O)(Cc1cc(Oc2ccccc2)nc(-c2ccccc2)n1)c1ccccc1`: the cell number change stood at 0.766%. Besides, the AC50 under setting [1] is 29.1 µM [rising, single point].

For `CCOC(=O)c1c(C)c(C(=O)NCc2ccc3c(c2)OCO3)c(C)n1CC`, the cell number change was -1.97%. The AC50 under setting [1] is 2.91 µM [rising, partial curve, poor fit].

Regarding `Cc1ccc(S(=O)(=O)NCCCNS(C)(=O)=O)cc1`, the cell number change was determined as 0.405%.

For the compound `CCN(C(=O)COC(=O)c1cc(S(=O)(=O)N2CCc3ccccc32)ccc1OC)C1CCS(=O)(=O)C1` (stereo not given), the cell number change is 7.67%. The concentration at half-maximal activity (AC50) under setting [1] was 3.26 µM [rising, single point].

Regarding `CCN(CC)S(=O)(=O)c1cc(NC(=O)Cn2cnc3ccccc3c2=O)ccc1C`, the cell number change was 3.57%. Further, the AC50 under setting [1] was 2.91 µM [rising, single point].

`CCOC(=O)c1c(C)n(-c2ccc(C)cc2)c2c(CC(C)=O)c(Br)c(OC)c(O)c12`: the cell number change was -34.2%. Under setting [2], the AC50 was 3.66 µM [falling, full curve]. Further, the concentration at half-maximal activity (AC50) under setting [1] was 29.1 µM [falling, single point].

Consider `Cc1cc(/C=C(/C#N)C(=O)O)c(C)n1CCC(C)C`, for which the cell number change was -9.13%. In addition, the half-maximal activity concentration (AC50) under setting [1] was 7.31 µM [falling, full curve].

For `COCCCNC(=O)/C(C#N)=C/c1ccc(F)cc1`, the cell number change is -71.6%. In addition, under setting [2], the concentration at half-maximal activity (AC50) is 23.1 µM [falling, single point]. Besides, the AC50 under setting [1] is 29.1 µM [falling, single point].

As for `CCOc1ccc(C(C(=O)NCCC(C)C)N(CCO)C(=O)c2snc(C(N)=O)c2N)cc1` (stereo not given), the cell number change was 2.1%. The half-maximal activity concentration (AC50) under setting [1] is 6.51 µM [falling, single point].

As to `Cc1ccccc1NC(=O)C(C)c1ccc(-c2ccccc2)c(F)c1` (stereo not given), the cell number change was found to be 6.66%. The AC50 under setting [2] is 0.103 µM [rising, full curve].

`CC(=O)Nc1ccc(NC(=O)COC(=O)c2cc([N+](=O)[O-])ccc2N2CCOCC2)cc1`: the cell number change was 35.5%.

With `CCOc1ccc(/C=N/Nc2ccc(C(F)(F)F)cc2[N+](=O)[O-])cc1O`, the cell number change was -1.07%. The concentration at half-maximal activity (AC50) under setting [1] was 16.4 µM [falling, single point].

On to `O=C(Nc1ccc(Cl)cc1)Nc1ccc2c(c1)OCO2`, for which the cell number change turned out to be 23.2%. Also, the half-maximal activity concentration (AC50) under setting [1] is 0.00461 µM [rising, full curve, poor fit].

For the compound `CCC(c1nnc(SCC(=O)Nc2ccc(C(N)=O)cc2)n1Cc1ccccc1)N(C)C` (stereo not given), the cell number change is -9.19%.

`O=C(c1cc(COc2ccc(F)cc2Cl)on1)N1CCC(OCc2cccnc2)CC1`: the cell number change is -39.7%. Moreover, the AC50 under setting [2] is 29.1 µM [falling, single point]. For the same compound, the concentration at half-maximal activity (AC50) under setting [1] is 32.6 µM [falling, partial curve, poor fit].

In the case of `CCOc1cc(CN2CCN(Cc3ccc(C)o3)C(CCO)C2)ccc1OC` (stereo not given), the cell number change was -1.51%.

`CCC(C)NC(=O)C1=C(C)C(=O)OC12CCC(C)CC2` (stereo not given): the cell number change is -29.8%. Further, the AC50 under setting [2] is 0.366 µM [falling, full curve]. Moreover, under setting [1], the AC50 is 0.58 µM [falling, full curve].

For `CC(=O)[C@@H]1[C@@H](C(=O)c2ccc(F)cc2)[C@]2(C(=O)Nc3ccccc32)[C@H]2C=Cc3cc(F)ccc3N12`, the cell number change came to 6.54%. Moreover, under setting [1], the AC50 was 3.26 µM [rising, partial curve].

`COc1ccc(C(=O)N=c2sc3c(C)ccc(OC)c3n2C)cc1`: under setting [2], the concentration at half-maximal activity (AC50) is 6.51 µM [rising, single point].

Regarding `C=CCn1c(=O)c(C(=O)NCc2ccc(Cl)cc2)c(O)c2ccccc21`, the cell number change turned out to be 15.1%.

Regarding `Cc1ccc(NC(=O)C2CCN(C(=O)OC(C)(C)C)CC2)cc1S(=O)(=O)N1CCCCC1`, the cell number change was 12%.

As for `CN(CC(=O)Nc1c(Cl)cccc1Cl)C(=O)c1cccc(S(=O)(=O)NCc2ccccc2)c1`, the cell number change came to 61.3%. In addition, under setting [2], the AC50 is 10.3 µM [rising, partial curve].

As for `CCOC(=O)Cn1nc(C)c2c1CCCC2=O`, the cell number change is -16.6%.

Regarding `Cc1sc2c(c1C)c(=O)nc1scc(CC(=O)O)n12`, the cell number change worked out at 28.6%.

In the case of `O=C(NNC(=O)c1ccc(Cl)cc1Cl)Nc1ccccc1`, the cell number change was -14.1%. In addition, the AC50 under setting [2] is 3.66 µM [falling, single point].

Regarding `CC(=O)NCCNC(=O)[C@H](Cc1ccccc1)NC(=O)c1cccs1`, the cell number change came to 13.2%.

Turning to `Cc1cc(NC(=S)Nc2ccccc2)ccc1Br`, the cell number change was -36.4%. Besides, the AC50 under setting [2] was 0.206 µM [falling, full curve]. Also, under setting [1], the AC50 is 0.0058 µM [falling, full curve, poor fit].

With `O=C(NNC(=S)Nc1ccccc1Cl)c1ccccc1Cl`, the cell number change came to 0.54%.

Take `COc1ccc(Cl)cc1Nc1nc(-c2sc(NC(=O)c3ccco3)nc2C)cs1`: the cell number change is -67.8%. Further, the AC50 under setting [2] is 18.4 µM [falling, partial curve]. Further, the AC50 under setting [1] was 8.2 µM [falling, partial curve].

Consider `O=C(OC(C(=O)NCc1cccs1)c1ccccc1Cl)c1ccco1` (stereo not given), for which the cell number change is -25.2%.

`O=C1OCCN1S(=O)(=O)Nc1ccccc1`: the cell number change was determined as 3.6%. Under setting [2], the AC50 is 0.731 µM [rising, single point].

In the case of `N#CCCn1cc(CNCc2ccccc2)c(-c2cccc([N+](=O)[O-])c2)n1`, the cell number change amounted to 13.4%. Moreover, the AC50 under setting [2] is 6.51 µM [rising, single point].

Take `CC(=O)c1c(N2CCOCC2)nc(=S)n(-c2ccccc2)c1C`: the cell number change was -0.551%.

Turning to `O=C(Nc1nc2c(Cl)c(Cl)ccc2s1)C1CC1`, the cell number change is -15.9%.

On to `O=C(CCNS(=O)(=O)c1ccc(Br)cc1)N1CCN(c2ccccc2O)CC1`, for which the cell number change is 21.1%. Besides, the AC50 under setting [1] was 9.2 µM [rising, partial curve].

Regarding `COc1ccc(C2C(C(=O)c3cccs3)=C(O)C(=O)N2c2nnc(C)s2)cc1OC` (stereo not given), the cell number change is 128%.

With `Nc1ccc(S(=O)(=O)NC2(C(F)(F)F)NC(=O)N(c3ccccc3F)C2=O)cc1` (stereo not given), the cell number change was found to be 1.28%. Also, the half-maximal activity concentration (AC50) under setting [2] is 1.64 µM [rising, partial curve, poor fit].

As to `Cc1ccccc1CNC(=O)C1CCN(c2nnc(N3CCCC3=O)s2)CC1`, the cell number change came to 11.2%. For the same compound, the AC50 under setting [1] was 0.00461 µM [rising, full curve, poor fit].
